Values quoted from earlier work as cited in patent US20180237358A1, “RADIOISOTOPE 18F SUBSTITUTED THIAMINE, AND SYNTHESIS METHOD AND USE THEREOF” (ZHONGSHAN HOSPITAL FUDAN UNIVERSITY, priority 2015, published 2018).

Tested on: cerebral glucose metabolism
Details: PET tracer, cited from earlier work

OC[C@H]1O[C@@H](O)[C@H]([18F])[C@@H](O)[C@@H]1O [2-[^18F]fluoro-2-deoxy-D-glucose]
sensitivity in diagnosis of mild AD (Bloudek 2011): up to 90% | specificity in diagnosis of mild AD (Bloudek 2011): ≤ 89% | predictive accuracy for development of amnestic mild cognitive impairment into AD (Mosconi 2004): 84%
